Results from PMC10039360.
No constants are given. Whether binding was seen depends on the method and setting. Binding seen in cells or lysates may run through a third protein. A result given as binding can be weak or reduced; the word gives no strength.

Biological target: T1, LZTFL1 (endogenous) (human (endogenous in HEK293T)) (UniProt Q9NQ48)
T1 sequence: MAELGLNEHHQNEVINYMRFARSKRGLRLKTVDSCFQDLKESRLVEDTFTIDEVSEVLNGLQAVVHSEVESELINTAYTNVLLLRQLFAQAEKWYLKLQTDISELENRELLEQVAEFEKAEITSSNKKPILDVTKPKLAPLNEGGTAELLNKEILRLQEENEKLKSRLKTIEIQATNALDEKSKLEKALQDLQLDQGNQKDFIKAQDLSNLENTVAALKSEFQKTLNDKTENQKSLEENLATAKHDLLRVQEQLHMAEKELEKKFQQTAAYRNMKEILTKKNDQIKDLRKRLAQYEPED
Assay: co-IP; HEK293T cells (no transfection named); immunoprecipitated with control IgG or anti-LZTFL1 antibody, blotted with anti-AKT or anti-LZTFL1 antibody

“AKT (endogenous) (human (endogenous in HEK293T)) (enzyme)” was tested, and the binding was “binds”.
